Measurements: ChEMBL document CHEMBL1126165, “Preparation and evaluation of some hydrophilic phenylacetyl-piperazines as peripherally selective -opioid receptor agonists” (Bioorg Med Chem Lett, 1992)

Legend:
[1] = Lipophilicity was expressed as Log D; conditions: octanol/water
[2] = Ratio of antinociceptive activity measured using mouse acetylcholine induced abdominal constriction test by s.c. administration to that done by i.c.v.; type: functional, Abdomen

**Q.** Which results are given for `CC(=O)N1CCN(C(=O)Cc2cccc([N+](=O)[O-])c2)C(CN2CC[C@H](O)C2)C1` (some centres not stated)?
**A.** logD [1]: -0.1; Ratio [2]: 123
